Source: article PMC9253567
These are yes or no findings as the source states them, for the method shown. In cells and extracts the contact can be indirect. Some entries that bind do so weakly or less than the wild type.

Sequences of proteins named here, by UniProt entry; tags and fusion partners are left off. A change or cut given only in a name is not applied to a line headed by its entry. A line that says so, or that is headed by a name, gives the form on record, which may keep a tag or linker.
UniProt Q7Z2W4: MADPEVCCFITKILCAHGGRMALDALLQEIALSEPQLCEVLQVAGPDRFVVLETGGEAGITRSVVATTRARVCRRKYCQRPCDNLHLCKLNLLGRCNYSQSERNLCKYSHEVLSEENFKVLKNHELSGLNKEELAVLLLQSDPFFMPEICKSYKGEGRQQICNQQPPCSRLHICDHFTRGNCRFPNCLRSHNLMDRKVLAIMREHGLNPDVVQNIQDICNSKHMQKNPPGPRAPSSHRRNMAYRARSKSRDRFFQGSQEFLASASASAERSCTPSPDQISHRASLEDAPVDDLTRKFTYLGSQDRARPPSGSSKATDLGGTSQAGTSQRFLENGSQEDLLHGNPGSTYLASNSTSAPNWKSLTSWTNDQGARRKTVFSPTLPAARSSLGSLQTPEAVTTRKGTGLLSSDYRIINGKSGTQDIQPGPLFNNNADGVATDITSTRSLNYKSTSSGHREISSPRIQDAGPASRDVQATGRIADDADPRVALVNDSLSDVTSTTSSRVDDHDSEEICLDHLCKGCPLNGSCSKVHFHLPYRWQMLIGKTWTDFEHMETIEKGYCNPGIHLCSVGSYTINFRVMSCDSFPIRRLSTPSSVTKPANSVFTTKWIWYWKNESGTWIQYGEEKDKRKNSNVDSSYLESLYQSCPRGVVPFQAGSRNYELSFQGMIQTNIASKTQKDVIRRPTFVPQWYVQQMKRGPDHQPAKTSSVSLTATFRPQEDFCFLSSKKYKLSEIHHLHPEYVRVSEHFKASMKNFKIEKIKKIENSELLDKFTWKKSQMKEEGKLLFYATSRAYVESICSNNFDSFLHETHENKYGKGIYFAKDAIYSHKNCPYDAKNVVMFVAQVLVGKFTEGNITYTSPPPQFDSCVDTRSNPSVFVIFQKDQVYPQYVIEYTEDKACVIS
FLAG-tagged ZAPS WT (zinc finger antiviral protein, short isoform) (Q7Z2W4, form named): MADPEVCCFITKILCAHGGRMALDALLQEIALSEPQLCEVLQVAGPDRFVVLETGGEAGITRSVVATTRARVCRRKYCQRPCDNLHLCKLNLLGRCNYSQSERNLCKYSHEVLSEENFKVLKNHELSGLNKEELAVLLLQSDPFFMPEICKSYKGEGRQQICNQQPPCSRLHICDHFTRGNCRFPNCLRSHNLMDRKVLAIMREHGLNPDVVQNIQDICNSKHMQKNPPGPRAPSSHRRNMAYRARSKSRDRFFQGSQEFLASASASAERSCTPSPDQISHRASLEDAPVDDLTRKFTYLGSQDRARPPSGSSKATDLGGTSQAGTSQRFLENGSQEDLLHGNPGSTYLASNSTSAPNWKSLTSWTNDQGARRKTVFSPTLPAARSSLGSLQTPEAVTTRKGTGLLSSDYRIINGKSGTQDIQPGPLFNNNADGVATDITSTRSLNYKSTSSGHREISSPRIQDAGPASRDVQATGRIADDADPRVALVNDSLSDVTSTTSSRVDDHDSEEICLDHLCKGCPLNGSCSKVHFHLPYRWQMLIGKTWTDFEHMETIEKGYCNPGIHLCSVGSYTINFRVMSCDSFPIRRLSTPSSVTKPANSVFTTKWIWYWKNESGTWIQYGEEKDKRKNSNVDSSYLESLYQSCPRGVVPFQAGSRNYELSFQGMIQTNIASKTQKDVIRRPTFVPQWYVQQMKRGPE
UniProt Q14258: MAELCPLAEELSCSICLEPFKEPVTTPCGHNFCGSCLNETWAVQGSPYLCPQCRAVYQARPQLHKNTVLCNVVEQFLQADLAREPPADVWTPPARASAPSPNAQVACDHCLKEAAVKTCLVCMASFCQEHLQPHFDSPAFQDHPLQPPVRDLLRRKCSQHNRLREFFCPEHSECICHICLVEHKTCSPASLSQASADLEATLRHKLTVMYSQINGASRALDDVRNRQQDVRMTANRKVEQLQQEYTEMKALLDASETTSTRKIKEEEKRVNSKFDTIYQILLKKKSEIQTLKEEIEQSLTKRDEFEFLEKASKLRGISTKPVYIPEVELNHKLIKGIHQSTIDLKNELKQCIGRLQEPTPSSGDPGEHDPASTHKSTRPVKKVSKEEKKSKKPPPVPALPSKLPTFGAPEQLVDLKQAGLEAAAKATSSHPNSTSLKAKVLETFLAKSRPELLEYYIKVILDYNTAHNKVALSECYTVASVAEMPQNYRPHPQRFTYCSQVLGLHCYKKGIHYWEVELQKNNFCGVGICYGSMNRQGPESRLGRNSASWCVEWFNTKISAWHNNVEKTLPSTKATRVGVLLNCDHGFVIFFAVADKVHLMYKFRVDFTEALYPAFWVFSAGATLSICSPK
myc-tagged TRIM25 7KA (lysine-rich 7K motif in the L2 linker replaced with alanines) (Q14258, form named): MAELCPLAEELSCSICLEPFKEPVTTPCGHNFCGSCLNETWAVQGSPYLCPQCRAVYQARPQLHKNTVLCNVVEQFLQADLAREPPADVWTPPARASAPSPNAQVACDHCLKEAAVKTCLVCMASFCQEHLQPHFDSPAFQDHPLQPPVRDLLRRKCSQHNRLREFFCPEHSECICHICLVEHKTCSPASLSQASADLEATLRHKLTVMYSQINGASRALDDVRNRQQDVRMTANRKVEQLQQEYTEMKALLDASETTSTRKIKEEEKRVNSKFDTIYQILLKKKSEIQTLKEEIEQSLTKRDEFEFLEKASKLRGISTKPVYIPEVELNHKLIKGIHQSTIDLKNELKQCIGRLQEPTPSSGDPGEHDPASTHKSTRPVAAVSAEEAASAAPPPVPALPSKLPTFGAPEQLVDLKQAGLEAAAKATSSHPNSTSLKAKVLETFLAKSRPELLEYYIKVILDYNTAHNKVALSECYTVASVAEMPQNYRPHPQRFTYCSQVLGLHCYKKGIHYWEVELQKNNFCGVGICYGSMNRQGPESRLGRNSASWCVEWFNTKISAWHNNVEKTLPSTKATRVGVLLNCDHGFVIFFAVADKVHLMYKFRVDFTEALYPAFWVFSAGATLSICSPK

Columns and labels:
[1] = target: FLAG-tagged ZAPS WT (zinc finger antiviral protein, short isoform) (human) (UniProt Q7Z2W4); experiment: co-IP; FLAG IP (anti-FLAG beads) of FLAG-ZAPS or FLAG-ZAPL WT from lysates of TRIM25 KO 293T cells co-transfected with myc-TRIM25 WT or mutants (maximised transfected amounts); myc-TRIM25 detected by immunoblot; FLAG IP buffer, 4°C, 45 min; normalised to input, quantified with ImageJ
[2] = target: FLAG-tagged ZAPL WT (zinc finger antiviral protein, long isoform) (human) (UniProt Q7Z2W4); experiment: as above

Substance | binding [1] | binding [2]
myc-tagged TRIM25 7KA (lysine-rich 7K motif in the L2 linker replaced with alanines) (from UniProt Q14258 1-630) | binds | binds
myc-tagged TRIM25 WT (tripartite motif-containing protein 25) (from UniProt Q14258 1-630) | – | binds
